Data: publication PMC8631515 (Frontiers in Oncology, 2021)
No constants are given. Whether binding was seen depends on the method and setting. Some binding calls cover weakened binding; strength is not graded here.

Chains of the proteins cited; added tags and fusions are not shown.
UniProt Q9NZQ7: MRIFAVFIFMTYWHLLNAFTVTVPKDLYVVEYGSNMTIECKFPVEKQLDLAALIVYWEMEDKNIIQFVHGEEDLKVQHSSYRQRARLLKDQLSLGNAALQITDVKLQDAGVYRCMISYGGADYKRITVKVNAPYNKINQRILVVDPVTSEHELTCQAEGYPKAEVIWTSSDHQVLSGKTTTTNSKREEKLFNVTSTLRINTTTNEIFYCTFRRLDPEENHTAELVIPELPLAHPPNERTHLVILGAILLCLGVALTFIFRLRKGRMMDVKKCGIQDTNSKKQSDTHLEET

Target: Programmed death-ligand 1 (PD-L1), Tag1-PD-L1 (UniProt Q9NZQ7)
Assay: AlphaScreen or HTRF; Cisbio HTRF PD1/PD-L1 binding assay kit; Tag1-PD-L1 and Tag2-PD1 detected with anti-Tag1-Europium (donor) and anti-Tag2-XL665 (acceptor); peptide or conjugate varied as blocker; IC50 from a sigmoidal (Hill) fit; n = 3; both purified

B1: random polypeptide (RAN) (peptide)
peptide: RHTNDYSQFYPK
modifications: all residues in D-form
binding: binds weakly
